Consider five molecules from PubChem BioAssay AID256 (DTP/NCI, 2004).

The list does not hold the whole screen: it gathers tests that were run many times, whatever their T/C, doses with no T/C, and many T/C values between a quarter and a half above the control. Further doses and runs are listed elsewhere. T/C: endpoint of the treated group in % of that of the vehicle group. Some entries give survivors of the animals treated and no T/C: the source holds a T/C of zero for them, seemingly a mark for toxic or unscored doses. Some doses without a T/C left all or most animals alive at the check, yet need not have been tolerated: the source hardly ever lists a survival T/C far under the control, and the zero likely stands for such cases as well. Counts of survivors are from the toxicity check (mostly the fifth day) where no day follows; animals may have died later. Schedules are NCI's codes, read here as Q, the interval in days (D) or hours (H), X, the number of doses.

The subject of this assay is CD2F1 mice, L1210 leukemia ip, survival T/C. Briefly: NCI In Vivo Anticancer Drug Screen. Data for tumor model L1210 Leukemia (intraperitoneal) in CD2F1 (CDF1) mice. Particulars: T/C endpoint: mean survival time, higher T/C = longer survival. Put shortly:
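Read-out first: treated-group measurement over vehicle-control measurement, expressed as a ratio. Animals bore a transplanted tumor line and were dosed with compound or vehicle.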

In the case of `S=C=NCCCCCCN=C=S`, the survivor count (dose: 100.0 mg/kg/injection, schedule: Q04DX002 (ip), vehicle: saline) is listed as 2 of 6.
Turning to `Cc1cc2c(cc1C)[n+]([O-])c1c(=O)[nH]c(=O)[nH]c1[n+]2[O-]`, the survivor count (dose: 100.0 mg/kg/injection, schedule: Q04DX002 (ip), vehicle: saline with Tween-80) was 0 of 3.
As for `Cn1cnc(=S)c2ccccc21`, the survivor count (dose: 100.0 mg/kg/injection, schedule: Q04DX003 (ip), vehicle: Klucel (hydroxypropylcellulose) (HPC)) is given as 3 of 3.
Take `O=C(/C(Br)=C/c1ccccc1)c1ccccc1`: the survivor count (dose: 400.0 mg/kg/injection, schedule: Q04DX003 (ip), vehicle: other) is 5 of 6.
Take `Cc1ccc(S(=O)(=O)SC(Cl)(Cl)Cl)cc1`: the survivor count (dose: 50.0 mg/kg/injection, schedule: Q01DX009 (ip), vehicle: saline) is reported as 3 of 3.
